Two sequences from paper PMC11893794 can be followed below.

This series relates to ADF-1L, Flag (Miichthys miiuy). The series can be described thus: pull-down. The conditions noted are these: pull-downs: 2 h at 25 C in MKC lysate; protein in a lysate after overexpression; protein details: Flag; label: biotin.

For at least one entry, the source does not settle the construct or the ends of the probe. Where cells or extracts were used, other partners may take part.

As for “CCCTGCAGCTGCAGTTTCAT (double strand) [7SL-motif1]”, the binding result is “binds”. Take “CTGAGCTGCAGTGGACTATG (double strand) [7SL-motif2]”: the binding result is recorded as “binds”.
